Our source for the survivor count and T/C values is PubChem BioAssay AID248 (DTP/NCI, 2004).

In this experiment the test system is L1210 leukemia ip in BDF1 mice, survival T/C. Put plainly: NCI In Vivo Anticancer Drug Screen. Data for tumor model L1210 Leukemia (intraperitoneal) in B6D2F1 (BDF1) mice. The conditions noted are these: T/C endpoint: mean survival time, higher T/C = longer survival.
Where [1] appears, read: dose: 400.0 mg/kg/injection, schedule: Q01DX001 (ip), vehicle: acetone.
Setting [2] is: dose: 400.0 mg/kg/injection, schedule: Q01DX001 (ip), vehicle: carboxymethylcellulose (CMC).
[3] abbreviates: dose: 400.0 mg/kg/injection, schedule: Q01DX001 (ip), vehicle: saline.
Setting [4] is: dose: 200.0 mg/kg/injection, schedule: Q01DX001 (ip), vehicle: other.
[5] abbreviates: dose: 400.0 mg/kg/injection, schedule: Q01DX001 (ip), vehicle: other.
[6] abbreviates: dose: 200.0 mg/kg/injection, schedule: Q04DX003 (ip), vehicle: saline.
[7] abbreviates: dose: 400.0 mg/kg/injection, schedule: Q04DX003 (ip), vehicle: saline.

The list is a part of this screen's results and no random one: it is rich in T/C values a quarter to a half above the control, in often repeated tests (any T/C) and in doses without a T/C. Further doses and runs are listed elsewhere. T/C: endpoint of the treated group in % of that of the vehicle group. Some entries give survivors of the animals treated and no T/C: the source files T/C as zero there, which appears to mark a toxic dose or a test without result, not a measured value. Some doses without a T/C left all or most animals alive at the check, yet need not have been tolerated: survival well below the control is almost never listed, so the zero probably covers shortened survival too. Counts of survivors are from the toxicity check (mostly the fifth day) where no day follows; animals may have died later. Schedules are NCI's codes, read here as Q, the interval in days (D) or hours (H), X, the number of doses. Some schedules carry Z or #; the key to these is not given. Some entries were tested several times; the values are given in rising order. For survival time, the PubChem record calls one and a half times the control and up active, and a quarter to a half above the control has no call in these data; cut-offs in other NCI protocols can differ. Some T/C values are followed by the survivors on the day toxicity was checked, most often the fifth; where none is given, no animal had died by that day.

On to `COc1cc(C=Nc2cccc(F)c2)ccc1N(CCCl)CCCl`, for which the survivor count runs as follows: (dose: 20.0 mg/kg/injection, schedule: Q01DX009 (ip), vehicle: acetone) 2 of 6; (dose: 40.0 mg/kg/injection, schedule: Q01DX009 (ip), vehicle: acetone) 0 of 6; (dose: 80.0 mg/kg/injection, schedule: Q01DX009 (ip), vehicle: acetone) 0 of 6; (dose: 100.0 mg/kg/injection, schedule: Q01DX001 (ip), vehicle: acetone) 0 of 6; (dose: 160.0 mg/kg/injection, schedule: Q01DX009 (ip), vehicle: acetone) 0 of 6; (dose: 160.0 mg/kg/injection, schedule: Q01DX009 (ip), vehicle: carboxymethylcellulose (CMC)) 6 of 6. The survivor count (dose: 200.0 mg/kg/injection, schedule: Q01DX001 (ip), vehicle: acetone) was 0 of 6; the survivor count under setting [1] is listed as 0 of 6; the survivor count under setting [2] is on record as 1 of 6; the survivor count under setting [3] is on record as 0 of 6. Also, the T/C is 129 % of control (dose: 20.0 mg/kg/injection, schedule: Q01DX009 (ip), vehicle: carboxymethylcellulose (CMC)); 126 and 141 % of control (dose: 40.0 mg/kg/injection, schedule: Q01DX009 (ip), vehicle: carboxymethylcellulose (CMC)); 125 % of control (dose: 80.0 mg/kg/injection, schedule: Q01DX009 (ip), vehicle: carboxymethylcellulose (CMC)); 141 % of control [5 of 6 alive] (dose: 150.0 mg/kg/injection, schedule: Q01DX001 (ip), vehicle: saline).
Consider `COc1cccc(C(C)(C)COS(=O)(=O)c2ccc(C)cc2)c1`, for which the survivor count (dose: 200.0 mg/kg/injection, schedule: Q01DX009 (ip), vehicle: saline with Tween-80) is listed as 3 of 3.
Consider `Cc1ccc(C(=O)/C(Cl)=N/O)cc1`, for which the survivor count runs as follows: under setting [4], 2 of 4; under setting [5], 0 of 4.
Consider `COc1ccc(/C=C/C(C)=O)cc1OC`, for which the survivor count runs as follows: (dose: 25.0 mg/kg/injection, schedule: Q01DX009 (ip), vehicle: saline) 6 of 6; (dose: 50.0 mg/kg/injection, schedule: Q01DX009 (ip), vehicle: saline) 5 of 6; (dose: 100.0 mg/kg/injection, schedule: Q01DX009 (ip), vehicle: saline) 6 of 6; (dose: 200.0 mg/kg/injection, schedule: Q01DX009 (ip), vehicle: saline) 6 of 6; (dose: 400.0 mg/kg/injection, schedule: Q01DX009 (ip), vehicle: saline) 6 of 6.
Take `C=CC[As](=O)(O)O`: the survivor count reads like this: (dose: 100.0 mg/kg/injection, schedule: Q04DX003 (ip), vehicle: saline) 1 of 6; under setting [6], 1 of 6; under setting [7], 0 of 6.
Take `O=C(NC(=O)C(Cl)Cl)OC1c2cc(Cl)ccc2-c2c(Cl)cc(Cl)cc21` (stereo not drawn): the survivor count (dose: 400.0 mg/kg/injection, schedule: Q01DX009 (ip), vehicle: Klucel (hydroxypropylcellulose) (HPC)) was 3 of 6.
For `FC(F)(F)/C([S-])=C(/[S-])C(F)(F)F.FC(F)(F)/C([S-])=C(/[S-])C(F)(F)F.FC(F)(F)/C([S-])=C(/[S-])C(F)(F)F.FC(F)(F)/C([S-])=C(/[S-])C(F)(F)F.[Co+3].[Co+3]`, the survivor count (dose: 50.0 mg/kg/injection, schedule: Q01DX009 (ip), vehicle: other) is 1 of 6.
In the case of `COC(=N)c1ccc(O)cc1`, the survivor count (dose: 400.0 mg/kg/injection, schedule: Q04DX002 (ip), vehicle: saline with Tween-80) was 2 of 3.
As for `COC(=O)C(C)(N)Cc1ccc(O)cc1` (stereo not drawn), under setting [7], the survivor count is 2 of 6.
For `CCCCc1cccc2c1OCO2`, under setting [3], the survivor count is 0 of 4.
Turning to `CSc1ncc(CO)c(N2CC2)n1`, under “dose: 200.0 mg/kg/injection, schedule: Q01DX Z (ip), vehicle: methylcellulose (MC)”, the survivor count is given as 3 of 6.
Take `N#C/C(=C1C=C(Br)/C(=N\O)C=C\1Cl)c1ccc(Cl)cc1`: the survivor count reads like this: (dose: 200.0 mg/kg/injection, schedule: Q01DX009 (ip), vehicle: acetone) 5 of 6; (dose: 400.0 mg/kg/injection, schedule: Q01DX009 (ip), vehicle: acetone) 2 of 6.
Turning to `CC(C)C[As](=O)(O)O`, for the setting “dose: 400.0 mg/kg/injection, schedule: Q04DX003 (ip), vehicle: Klucel (hydroxypropylcellulose) (HPC)”, the survivor count is on record as 3 of 6.
As for `COc1ccc(C(=O)c2cccc3c2-c2ccccc2C3(c2ccc(OC)c(C)c2)c2ccc(OC)c(C)c2)cc1C`, the survivor count is, setting by setting: (dose: 100.0 mg/kg/injection, schedule: Q01DX001 (ip), vehicle: other) 4 of 4; under setting [4], 4 of 4; under setting [5], 4 of 4.
On to `CCCCCCCC[As](=O)(O)O`, for which the survivor count (dose: 12.5 mg/kg/injection, schedule: Q01DX001 (ip), vehicle: carboxymethylcellulose (CMC)) was 0 of 4; the survivor count (dose: 25.0 mg/kg/injection, schedule: Q01DX001 (ip), vehicle: carboxymethylcellulose (CMC)) was 0 of 4; the survivor count (dose: 50.0 mg/kg/injection, schedule: Q01DX001 (ip), vehicle: carboxymethylcellulose (CMC)) is given as 0 of 4.
In the case of `CCC1CCC(NC(=O)NCCF)CC1` (stereo not drawn), the survivor count (dose: 150.0 mg/kg/injection, schedule: Q01DX001 (ip), vehicle: other) is recorded as 0 of 6 and the survivor count (dose: 300.0 mg/kg/injection, schedule: Q01DX001 (ip), vehicle: other) is on record as 0 of 6.
For `CCN(CC)CCN(C)C(=O)C(c1ccccc1)c1ccccc1`, the survivor count under setting [7] was 1 of 6.
Same read-out and setting: next, `O=C(CC1CCCCN1)CC1CCCCN1` (stereo not drawn): 2 of 6.
As to `CCC(C)(C)c1cccc(C(=O)O)c1O`, the survivor count under setting [2] is 2 of 4.
Take `O=[N+]([O-])c1ccc(Cl)c2nonc12`: the survivor count was 2 of 4 (dose: 12.5 mg/kg/injection, schedule: Q04DX002 (ip), vehicle: Klucel (hydroxypropylcellulose) (HPC)); 2 of 4 (dose: 25.0 mg/kg/injection, schedule: Q04DX002 (ip), vehicle: Klucel (hydroxypropylcellulose) (HPC)); 0 of 3 and 1 of 4 (dose: 50.0 mg/kg/injection, schedule: Q04DX002 (ip), vehicle: Klucel (hydroxypropylcellulose) (HPC)); 0 of 3 (dose: 100.0 mg/kg/injection, schedule: Q04DX002 (ip), vehicle: Klucel (hydroxypropylcellulose) (HPC)); 1 of 3 (dose: 200.0 mg/kg/injection, schedule: Q04DX002 (ip), vehicle: Klucel (hydroxypropylcellulose) (HPC)).
As to `COc1cc2c(cc1OC)C1CC(=O)CCN1CC2` (stereo not drawn), the T/C (dose: 50.0 mg/kg/injection, schedule: Q01DX009 (ip), vehicle: Klucel (hydroxypropylcellulose) (HPC)) is 130 % of control. Further, the survivor count (dose: 100.0 mg/kg/injection, schedule: Q01DX009 (ip), vehicle: Klucel (hydroxypropylcellulose) (HPC)) is listed as 3 of 3.
In the case of `CC(C)C(N)(CCCN(C)C)c1cccc2ccccc12` (stereo not drawn), the survivor count by setting is: (dose: 25.0 mg/kg/injection, schedule: Q04DX002 (ip), vehicle: saline with Tween-80) 3 of 3; (dose: 50.0 mg/kg/injection, schedule: Q04DX002 (ip), vehicle: saline with Tween-80) 3 of 3.
Turning to `CC1=CC(C)(C)NC(=S)N1C`, the survivor count (dose: 112.0 mg/kg/injection, schedule: Q01DX Z (ip), vehicle: methylcellulose (MC)) is on record as 6 of 6; the survivor count (dose: 250.0 mg/kg/injection, schedule: Q01DX Z (ip), vehicle: methylcellulose (MC)) is 5 of 6; the survivor count (dose: 375.0 mg/kg/injection, schedule: Q01DX Z (ip), vehicle: methylcellulose (MC)) is recorded as 1 of 6.
Consider `O=C(Sc1ccccc1)C(Cl)(Cl)Cl`, for which the survivor count is, setting by setting: (dose: 150.0 mg/kg/injection, schedule: Q01DX009 (ip), vehicle: acetone) 5 of 6; under setting [6], 6 of 6; (dose: 225.0 mg/kg/injection, schedule: Q01DX009 (ip), vehicle: acetone) 0 of 6; (dose: 335.0 mg/kg/injection, schedule: Q01DX009 (ip), vehicle: acetone) 0 of 6; under setting [1], 0 of 6.
In the case of `CC(C)(CO)CN1CCCC1`, the survivor count under setting [3] is given as 0 of 4.
